Test results as given in the M2OR odorant receptor database.
The entries are a selection whose mix differs from that of the whole data set. Calls are pooled over several reports, among them a noisy single-well screen. The list shows a part of the results.

By UniProt entry, the sequences of proteins in these tests, tags left out. Where a name states a change or a piece, a line headed by the entry shows the natural chain unless it says otherwise.
UniProt Q8NH57: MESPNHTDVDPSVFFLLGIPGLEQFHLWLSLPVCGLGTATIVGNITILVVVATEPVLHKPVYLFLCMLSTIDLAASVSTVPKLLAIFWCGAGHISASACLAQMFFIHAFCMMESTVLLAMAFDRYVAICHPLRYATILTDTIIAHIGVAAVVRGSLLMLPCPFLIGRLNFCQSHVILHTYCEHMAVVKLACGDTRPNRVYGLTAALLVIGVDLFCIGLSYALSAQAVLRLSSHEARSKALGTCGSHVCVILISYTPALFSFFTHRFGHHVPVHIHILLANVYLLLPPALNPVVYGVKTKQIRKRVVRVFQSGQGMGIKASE

Experiments:
Conditions in all cases: stereoisomer not certain
OR52N1 (Homo sapiens) = biological target: T1, OR52N1 (Homo sapiens) (UniProt Q8NH53)
T1 sequence (whole entry): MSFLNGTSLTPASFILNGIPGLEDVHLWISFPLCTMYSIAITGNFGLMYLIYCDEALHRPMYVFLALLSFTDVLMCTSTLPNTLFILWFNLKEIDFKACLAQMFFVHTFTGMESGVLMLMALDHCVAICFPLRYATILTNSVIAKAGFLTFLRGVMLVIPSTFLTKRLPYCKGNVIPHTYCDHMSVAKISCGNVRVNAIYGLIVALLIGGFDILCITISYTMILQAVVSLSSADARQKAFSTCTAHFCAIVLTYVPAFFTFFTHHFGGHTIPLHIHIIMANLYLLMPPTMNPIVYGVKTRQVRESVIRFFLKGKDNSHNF
How it was run: (§1)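 Values were gathered from published papers (main text and supplementary material), with extra details requested from the original authors when needed, and checked for typos and inconsistencies. Each receptor–molecule pair is called responsive (active) if the original authors judged the measured signal statistically different from baseline, and non-responsive (inactive) otherwise. Assay methods varied by source, often transient mammalian cell-line luciferase assays. Recorded details include cell line, G-protein, co-transfected protein and tags.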

OR52N4 (Homo sapiens) = biological target: T2, OR52N4 (Homo sapiens) (UniProt Q8NGI2)
T2 sequence (whole entry): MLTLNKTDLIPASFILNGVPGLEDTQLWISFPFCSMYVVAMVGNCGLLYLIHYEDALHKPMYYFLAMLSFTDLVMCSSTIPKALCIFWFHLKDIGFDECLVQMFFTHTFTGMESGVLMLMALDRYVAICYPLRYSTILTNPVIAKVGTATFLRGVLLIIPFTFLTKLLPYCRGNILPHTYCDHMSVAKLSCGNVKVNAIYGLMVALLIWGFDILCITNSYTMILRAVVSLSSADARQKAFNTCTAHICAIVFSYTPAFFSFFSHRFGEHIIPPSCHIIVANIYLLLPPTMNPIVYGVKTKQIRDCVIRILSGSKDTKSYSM
How it was run: as §1

OR52N5 (Homo sapiens) = biological target: T3, OR52N5 (Homo sapiens) (UniProt Q8NH56)
T3 sequence (whole entry): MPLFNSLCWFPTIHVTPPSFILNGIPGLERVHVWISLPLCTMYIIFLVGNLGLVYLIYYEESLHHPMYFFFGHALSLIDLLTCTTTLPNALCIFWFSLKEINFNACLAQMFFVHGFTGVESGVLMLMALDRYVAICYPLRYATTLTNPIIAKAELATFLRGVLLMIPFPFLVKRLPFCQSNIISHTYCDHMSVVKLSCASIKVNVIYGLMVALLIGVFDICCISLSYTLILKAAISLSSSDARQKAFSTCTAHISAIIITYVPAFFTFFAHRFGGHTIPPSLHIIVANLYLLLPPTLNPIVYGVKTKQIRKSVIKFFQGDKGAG
How it was run: as §1

OR52P1 (Homo sapiens) = OR52P1 (Homo sapiens) (UniProt Q8NH57)
How it was run: as §1

OR52W1 (Homo sapiens) = biological target: T4, OR52W1 (Homo sapiens) (UniProt Q6IF63)
T4 sequence (whole entry): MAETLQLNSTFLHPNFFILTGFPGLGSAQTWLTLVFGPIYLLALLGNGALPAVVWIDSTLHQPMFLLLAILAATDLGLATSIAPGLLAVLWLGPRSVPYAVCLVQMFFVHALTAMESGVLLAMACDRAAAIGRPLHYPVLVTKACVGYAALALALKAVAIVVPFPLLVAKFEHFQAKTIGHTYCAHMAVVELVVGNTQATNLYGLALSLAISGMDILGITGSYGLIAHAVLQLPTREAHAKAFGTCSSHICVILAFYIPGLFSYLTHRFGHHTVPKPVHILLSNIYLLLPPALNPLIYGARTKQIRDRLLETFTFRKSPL
How it was run: as §1

OR56A1 (Homo sapiens) = biological target: T5, OR56A1 (Homo sapiens) (UniProt Q8NGH5)
T5 sequence (whole entry): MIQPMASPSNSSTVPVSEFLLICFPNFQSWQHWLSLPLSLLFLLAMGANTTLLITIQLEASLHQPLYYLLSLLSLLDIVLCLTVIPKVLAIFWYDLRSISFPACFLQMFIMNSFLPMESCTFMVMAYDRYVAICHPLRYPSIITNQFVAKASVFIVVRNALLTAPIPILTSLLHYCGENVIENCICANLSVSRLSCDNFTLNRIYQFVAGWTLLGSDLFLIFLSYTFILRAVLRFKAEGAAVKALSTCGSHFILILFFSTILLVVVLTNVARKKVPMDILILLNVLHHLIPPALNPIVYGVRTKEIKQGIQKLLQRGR
How it was run: as §1

OR56A3 (Homo sapiens) = biological target: T6, OR56A3 (Homo sapiens) (UniProt Q8NH54)
T6 sequence (whole entry): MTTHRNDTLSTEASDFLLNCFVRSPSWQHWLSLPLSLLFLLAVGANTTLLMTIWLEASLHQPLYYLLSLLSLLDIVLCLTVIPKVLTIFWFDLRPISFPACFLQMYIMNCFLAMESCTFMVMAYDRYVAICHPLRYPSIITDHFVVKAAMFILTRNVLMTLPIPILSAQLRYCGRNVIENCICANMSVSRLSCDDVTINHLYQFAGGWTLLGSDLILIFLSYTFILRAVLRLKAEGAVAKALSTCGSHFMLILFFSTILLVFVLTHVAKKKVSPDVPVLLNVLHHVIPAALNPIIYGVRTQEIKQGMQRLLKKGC
How it was run: as §1

OR56A4 (Homo sapiens) = biological target: T7, OR56A4 (Homo sapiens) (UniProt Q8NGH8)
T7 sequence (whole entry): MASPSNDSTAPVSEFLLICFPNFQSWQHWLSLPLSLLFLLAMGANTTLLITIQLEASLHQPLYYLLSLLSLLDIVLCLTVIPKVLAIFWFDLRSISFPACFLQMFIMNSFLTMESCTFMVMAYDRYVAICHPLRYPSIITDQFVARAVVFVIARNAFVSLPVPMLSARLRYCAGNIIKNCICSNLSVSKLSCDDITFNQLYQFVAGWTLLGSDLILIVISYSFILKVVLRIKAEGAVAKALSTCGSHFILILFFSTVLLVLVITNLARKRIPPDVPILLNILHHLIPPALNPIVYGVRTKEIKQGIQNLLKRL
How it was run: as §1

OR56A5 (Homo sapiens) = biological target: T8, OR56A5 (Homo sapiens) (UniProt P0C7T3)
T8 sequence (whole entry): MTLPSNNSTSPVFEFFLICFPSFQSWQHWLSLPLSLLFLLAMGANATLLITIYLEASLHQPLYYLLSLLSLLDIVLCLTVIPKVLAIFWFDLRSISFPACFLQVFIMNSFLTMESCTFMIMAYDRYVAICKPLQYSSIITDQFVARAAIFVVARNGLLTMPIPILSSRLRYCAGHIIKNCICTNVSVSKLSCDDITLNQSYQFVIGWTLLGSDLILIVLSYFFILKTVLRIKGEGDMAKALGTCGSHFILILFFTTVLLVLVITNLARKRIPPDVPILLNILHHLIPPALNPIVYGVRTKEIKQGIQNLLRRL
How it was run: as §1

OR56B1 (Homo sapiens) = biological target: T9, OR56B1 (Homo sapiens) (UniProt Q8NGI3)
T9 sequence (whole entry): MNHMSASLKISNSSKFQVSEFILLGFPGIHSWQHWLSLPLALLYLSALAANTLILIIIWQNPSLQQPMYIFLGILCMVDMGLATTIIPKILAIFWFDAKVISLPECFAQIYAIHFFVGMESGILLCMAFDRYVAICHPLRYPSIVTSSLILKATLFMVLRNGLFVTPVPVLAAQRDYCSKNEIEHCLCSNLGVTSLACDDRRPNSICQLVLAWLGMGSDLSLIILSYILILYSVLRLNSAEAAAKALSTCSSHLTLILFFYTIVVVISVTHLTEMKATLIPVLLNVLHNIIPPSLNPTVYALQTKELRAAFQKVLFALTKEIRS
How it was run: as §1

OR56B4 (Homo sapiens) = biological target: T10, OR56B4 (Homo sapiens) (UniProt Q8NH76)
T10 sequence (whole entry): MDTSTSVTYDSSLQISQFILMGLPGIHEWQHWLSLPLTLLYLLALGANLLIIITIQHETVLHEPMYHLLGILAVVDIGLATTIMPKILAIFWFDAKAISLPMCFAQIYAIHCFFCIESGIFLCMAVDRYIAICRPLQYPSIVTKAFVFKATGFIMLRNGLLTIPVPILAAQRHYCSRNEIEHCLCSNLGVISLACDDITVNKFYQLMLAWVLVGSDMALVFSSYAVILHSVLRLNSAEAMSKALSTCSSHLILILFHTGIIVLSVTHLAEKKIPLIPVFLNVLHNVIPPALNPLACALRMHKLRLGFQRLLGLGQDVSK
How it was run: as §1

OR5A1 (Homo sapiens) = OR5A1 (Homo sapiens) (UniProt Q8NGJ0)
How it was run: as §1

OR5A1 [1] = test system: T11, OR5A1
T11 sequence (whole entry): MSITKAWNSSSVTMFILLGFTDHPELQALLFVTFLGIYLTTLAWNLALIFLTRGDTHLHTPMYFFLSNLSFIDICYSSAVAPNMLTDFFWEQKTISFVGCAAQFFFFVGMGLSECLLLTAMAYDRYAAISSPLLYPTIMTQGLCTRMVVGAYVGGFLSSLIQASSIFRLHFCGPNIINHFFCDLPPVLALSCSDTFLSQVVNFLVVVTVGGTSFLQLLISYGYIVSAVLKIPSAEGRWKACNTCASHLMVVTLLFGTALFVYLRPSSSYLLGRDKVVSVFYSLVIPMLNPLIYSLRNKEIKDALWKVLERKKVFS
How it was run: as §1

OR5A1 [2] = test system: T12, OR5A1; remark: listed apart in the source
T12 sequence (whole entry): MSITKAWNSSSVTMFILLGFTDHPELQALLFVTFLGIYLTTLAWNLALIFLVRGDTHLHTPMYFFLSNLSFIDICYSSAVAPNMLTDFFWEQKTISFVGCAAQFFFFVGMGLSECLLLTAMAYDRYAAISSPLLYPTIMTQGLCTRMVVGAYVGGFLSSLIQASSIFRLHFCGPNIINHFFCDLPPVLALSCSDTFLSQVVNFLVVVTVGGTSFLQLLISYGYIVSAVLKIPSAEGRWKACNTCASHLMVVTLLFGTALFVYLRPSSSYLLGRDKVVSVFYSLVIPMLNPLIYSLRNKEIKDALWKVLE
How it was run: as §1

OR5A1 [3] = test system: T13, OR5A1; remark: listed apart in the source
T13 sequence (whole entry): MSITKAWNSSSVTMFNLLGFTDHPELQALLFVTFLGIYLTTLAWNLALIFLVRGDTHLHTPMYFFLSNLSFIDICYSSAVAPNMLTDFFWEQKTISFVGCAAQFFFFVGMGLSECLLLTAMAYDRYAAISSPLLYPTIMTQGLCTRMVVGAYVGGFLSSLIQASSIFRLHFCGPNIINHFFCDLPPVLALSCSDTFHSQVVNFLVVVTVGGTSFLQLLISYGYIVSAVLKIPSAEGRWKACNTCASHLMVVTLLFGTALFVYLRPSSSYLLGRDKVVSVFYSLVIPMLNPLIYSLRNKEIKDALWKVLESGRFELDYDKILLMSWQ
How it was run: as §1

OR5AC2 (Homo sapiens) = biological target: T14, OR5AC2 (Homo sapiens) (UniProt Q9NZP5)
T14 sequence (whole entry): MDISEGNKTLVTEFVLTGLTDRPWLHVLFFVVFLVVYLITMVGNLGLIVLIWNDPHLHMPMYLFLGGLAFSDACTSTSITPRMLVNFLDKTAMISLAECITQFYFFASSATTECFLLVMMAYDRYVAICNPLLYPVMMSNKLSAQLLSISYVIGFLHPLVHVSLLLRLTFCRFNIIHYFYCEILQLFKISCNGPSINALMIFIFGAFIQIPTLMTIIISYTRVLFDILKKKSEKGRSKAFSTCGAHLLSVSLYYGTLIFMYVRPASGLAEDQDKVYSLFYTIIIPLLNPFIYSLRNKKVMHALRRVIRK
How it was run: as §1

OR5AK2 (Homo sapiens) = biological target: T15, OR5AK2 (Homo sapiens) (UniProt Q8NH90)
T15 sequence (whole entry): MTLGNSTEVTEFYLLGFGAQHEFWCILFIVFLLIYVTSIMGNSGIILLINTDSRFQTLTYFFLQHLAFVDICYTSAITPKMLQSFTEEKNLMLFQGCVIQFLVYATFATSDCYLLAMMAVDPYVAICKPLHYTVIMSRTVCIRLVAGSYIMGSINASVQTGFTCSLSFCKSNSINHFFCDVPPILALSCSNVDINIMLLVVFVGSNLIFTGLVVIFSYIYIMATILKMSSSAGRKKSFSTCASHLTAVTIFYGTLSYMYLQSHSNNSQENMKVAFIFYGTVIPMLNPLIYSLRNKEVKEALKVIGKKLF
How it was run: as §1

OR5A2 (Homo sapiens) = biological target: T16, OR5A2 (Homo sapiens) (UniProt Q8NGI9)
T16 sequence (whole entry): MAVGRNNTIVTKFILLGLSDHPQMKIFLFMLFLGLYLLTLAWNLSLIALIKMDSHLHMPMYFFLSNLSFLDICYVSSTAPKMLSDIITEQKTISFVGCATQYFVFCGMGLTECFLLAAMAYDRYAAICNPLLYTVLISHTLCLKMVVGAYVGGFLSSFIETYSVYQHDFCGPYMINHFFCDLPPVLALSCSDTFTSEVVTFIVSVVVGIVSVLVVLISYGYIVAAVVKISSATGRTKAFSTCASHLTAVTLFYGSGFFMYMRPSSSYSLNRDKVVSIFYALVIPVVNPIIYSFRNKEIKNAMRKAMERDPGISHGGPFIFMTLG
How it was run: as §1

Measured: odorant receptor agonist call

CC12C=CCC1C1CCC3CC(=O)CCC3(C)C1CC2 (stereo not given)
active: OR5A1 [2] | OR5A1 [3]
inactive: OR52N1 (Homo sapiens) | OR52N4 (Homo sapiens) | OR52N5 (Homo sapiens) | OR52P1 (Homo sapiens) | OR52W1 (Homo sapiens) | OR56A1 (Homo sapiens) | OR56A3 (Homo sapiens) | OR56A4 (Homo sapiens) | OR56A5 (Homo sapiens) | OR56B1 (Homo sapiens) | OR56B4 (Homo sapiens) | OR5A1 (Homo sapiens) | OR5A1 [1] | OR5AC2 (Homo sapiens) | OR5AK2 (Homo sapiens)

CC(C)CC(=O)O
active: OR56A5 (Homo sapiens)
inactive: OR52N5 (Homo sapiens) | OR56A1 (Homo sapiens) | OR56A4 (Homo sapiens) | OR5A1 [1] | OR5A1 [2] | OR5A1 [3] | OR5A2 (Homo sapiens) | OR5AK2 (Homo sapiens)

CC(C)CCC(=O)O
inactive: OR52N5 (Homo sapiens) | OR56A1 (Homo sapiens) | OR56A4 (Homo sapiens) | OR56A5 (Homo sapiens) | OR5A1 [1] | OR5A1 [2] | OR5A1 [3] | OR5A2 (Homo sapiens) | OR5AK2 (Homo sapiens)
